Results taken from PubChem BioAssay AID1259354 (Paczesny and Yang Labs, IUPUI and University of Michigan, 2018).
The campaign covered roughly 78,000 compounds. About 1,800 (2.3%) were called active. This list was built around the results that the source calls inconclusive (neither active nor inactive); the mix of calls is not that of the screen. Cut-off read from the data, not from the text of the source: active = inhibition above about 30%; inconclusive = mostly about 10% to 28%; inactive = weaker than that.

Protein sequences, listed by entry. Tags and fused reporters are not part of them. Lines headed by an entry give the natural chain unless they say otherwise; changes in a name come on top.
UniProt Q01638: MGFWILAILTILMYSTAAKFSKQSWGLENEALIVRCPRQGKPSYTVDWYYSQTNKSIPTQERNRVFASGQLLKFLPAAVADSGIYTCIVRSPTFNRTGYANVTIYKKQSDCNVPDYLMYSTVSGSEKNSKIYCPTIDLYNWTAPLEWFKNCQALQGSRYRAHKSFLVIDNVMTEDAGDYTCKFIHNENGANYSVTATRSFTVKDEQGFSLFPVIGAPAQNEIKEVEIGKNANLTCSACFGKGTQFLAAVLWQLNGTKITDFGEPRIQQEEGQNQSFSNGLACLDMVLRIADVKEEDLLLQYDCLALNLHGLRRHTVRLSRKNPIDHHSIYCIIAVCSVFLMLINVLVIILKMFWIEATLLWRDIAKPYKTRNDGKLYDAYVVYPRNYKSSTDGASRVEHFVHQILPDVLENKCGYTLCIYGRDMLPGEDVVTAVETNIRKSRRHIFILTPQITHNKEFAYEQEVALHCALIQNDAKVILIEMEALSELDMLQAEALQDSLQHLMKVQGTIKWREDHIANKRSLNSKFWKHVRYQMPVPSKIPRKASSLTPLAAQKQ

molecular target: Interleukin-1 receptor-like 1 (Homo sapiens) (UniProt Q01638); assay: blocks human ST2 binding to IL-33, primary screen, biochemical, AlphaLISA (AID 1259354); settings: AlphaLISA ST2-Fc/biotin-IL-33 interaction, 1 h; at 17 µM, hits give high values

Row | Structure (SMILES) | inhibition
1 | CCSCCOC(=O)C1=C(C)Nc2ccccc2S1 | active: 43%
2 | O=C1C2CC=C(Cl)CC2C(=O)N1CCN1CCOCC1 (stereo unspecified) | inconclusive: 17%
3 | Cc1ccc(C(CNC(=O)c2cnn3c2CCCC3)N2CCOCC2)o1 (stereo unspecified) | inconclusive: 10%
4 | Cc1cc2ncc(-c3ccc(Br)cc3)nc2cc1C | inactive
5 | Cc1ccc(CNC(=O)CN2C(=O)/C(=C/c3ccccc3C)Sc3ccccc32)cc1 | inconclusive: 20%
6 | COC(=O)c1ccc(NS(=O)(=O)c2cc(Br)cc3c2N(C(C)=O)C(C)C3)cc1 (stereo unspecified) | inactive
7 | O=C(N[C@H]1CCN2C(=O)c3ccc(Cl)cc3NC(=O)[C@H]12)c1cccc(F)c1 | inconclusive: 15%
8 | CCc1nc(SCC(=O)c2ccc(C)cc2)c(C#N)cc1C | inactive
9 | O=C(Cc1ccc(N2CCNC2=O)cc1)N1CCCC(Nc2ccc(F)c(F)c2)C1 (stereo unspecified) | inconclusive: 13%
10 | COc1ccc(CNc2ccc3c(c2)ncn3C(C)(C)C)c(OC)c1 | inconclusive: 15%
11 | O=C(c1cc2ccccn2n1)N1CCN(c2ccc(Cl)nn2)CC1 | inconclusive: 18%
12 | Cc1c(C(=O)Nc2ccccc2C(=O)NC2CCCCC2)cccc1[N+](=O)[O-] | inactive
13 | CC(C)(C)c1ccc(CNS(=O)(=O)c2ccc(N3CCCC3=O)cc2)cc1 | inconclusive: 12%
14 | CC(C)Cn1cc(C(=O)NCc2ccc3c(c2)OCO3)c2c3ccccc3n(C)c2c1=O | inactive
15 | O=C(CS(=O)(=O)c1c[nH]c2ccccc12)Nc1ccc(Br)cc1 | inactive
16 | CN1CCN2c3ccccc3Cc3ccccc3C2C1 (stereo unspecified) | inconclusive: 19%
17 | Nc1cccc(C(=O)Nc2cccc(S(=O)(=O)CCO)c2)c1 | inactive
18 | CC1CCC(NS(=O)(=O)c2cccc3cccnc23)CC1 (stereo unspecified) | inconclusive: 12%
19 | CC1=C(C(=O)Nc2cc(C)ccn2)C(c2ccsc2)C2=C(CCCC2=O)N1 (stereo unspecified) | inactive
20 | O=C(Nc1cccc2c1C(=O)c1ccccc1C2=O)c1cccc(C(F)(F)F)c1 | inconclusive: 16%
21 | CC(=O)NCC1CCCN(c2nc(C(C)(C)C)nc3c2cnn3C)C1 (stereo unspecified) | inconclusive: 24%
22 | CCCc1ccc(Oc2cn[nH]c2-c2ccc(OC)cc2O)cc1 | inconclusive: 18%
23 | CNS(=O)(=O)CCNCC(=O)NCc1ccccc1F | inconclusive: 13%

3 entries out of the list, arranged by molar mass, high to low:
Row | Structure (SMILES) | inhibition
5 | Cc1ccc(CNC(=O)CN2C(=O)/C(=C/c3ccccc3C)Sc3ccccc32)cc1 | inconclusive: 20%
10 | COc1ccc(CNc2ccc3c(c2)ncn3C(C)(C)C)c(OC)c1 | inconclusive: 15%
1 | CCSCCOC(=O)C1=C(C)Nc2ccccc2S1 | active: 43%

The list goes on:

Row | Structure (SMILES) | inhibition
24 | COCCNC(=O)CN1C(=O)/C(=C\c2cccc(Cl)c2)Sc2ccccc21 | inactive
25 | CN1CCCn2nc(C(=O)NCCn3nnc4ccccc43)cc2C1 | inconclusive: 14%
26 | c1ccc(C2CCCN(Cc3cc4n(n3)CCNC4)CC2)cc1 (stereo unspecified) | inconclusive: 14%
27 | O=C(c1cnn2cc(CCO)cnc12)N1CCCC(Nc2cccc(F)c2)C1 (stereo unspecified) | inactive
28 | Cc1ccc(-c2ccnc(NC3CC(=O)N(CC(C)(C)C)C3)n2)c(C)n1 (stereo unspecified) | inactive
29 | Cc1ncc(CO)c(CN2CCCCC2c2ccc(F)cc2)c1O (stereo unspecified) | inactive
30 | O=C(Cc1ccsc1)NC1CC(=O)N(Cc2ccccc2C(F)(F)F)C1 (stereo unspecified) | inconclusive: 11%
31 | O=C1C=C(NCCc2ccccc2)CC1 | inactive
32 | O=C1CC(c2ccccc2-c2ccccc2)c2c(n[nH]c2C(=O)O)N1 (stereo unspecified) | inconclusive: 16%
33 | O=C(CCCN1C(=O)c2ccccc2C1=O)Nc1ccc(S(=O)(=O)Nc2ncccn2)cc1 | inconclusive: 24%
34 | NC(=O)Cn1cnc2c(cnn2-c2ccc(Cl)cc2)c1=O | inconclusive: 13%
35 | COc1ccc(C(=O)N2CCC(C(=O)NCc3ccccc3Cl)CC2)cc1 | inactive
36 | CC(=O)Nc1ccc(S(=O)(=O)Nc2ccc(Cl)cc2)cc1 | inconclusive: 18%
37 | COc1ccc(/C=C/Oc2ccccc2OC)cc1OC | inconclusive: 14%
38 | COCC(=O)Nc1c(C(=O)Nc2ccccc2F)oc2ccccc12 | inactive
39 | COc1ccc(-c2ccnc(N)c2)c(OC)c1 | inactive
40 | CCOC(=O)c1ccc(NC(=O)c2cc3c(=O)n4ccccc4nc3n2C)cc1 | inconclusive: 11%
41 | COc1ccc(N2COc3ccc4ccccc4c3C2)cc1 | inconclusive: 15%
42 | CCc1ccc(CN2CCOc3c(O)cc(-c4cccc(Cl)c4)cc3C2)nc1 | inconclusive: 13%
43 | CC(C)=CCOc1ccc(/C=C/C(=O)c2ccc(O)cc2O)cc1 | inconclusive: 16%
44 | O=C(CCC1CCN(C(=O)C2CCOCC2)CC1)N1CCC(Cc2ccccc2)CC1 | inconclusive: 12%
45 | Cc1ccc(/C(N)=N\OC(=O)c2ccc3c(c2)OCO3)cc1 | inactive
46 | CCOc1ccc(/C=C2\N=C(c3ccc(OC)cc3)OC2=O)cc1OCC | inconclusive: 13%
